PubChem BioAssay AID652272 – Drosophila RNAi Screening Center, 2013
Screen: 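Genome-wide knock-down search for components of Hedgehog signalling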 (primary screen). System: Drosophila clone 8 (Cl8) cells. Knock-down reagent: long dsRNA against Drosophila genes. Read-out: 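Plate reader light from a firefly reporter under a ptc promoter fragment that responds to Hedgehog, with Renilla light as transfection reference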. Scale: firefly Hh reporter signal: higher = more ptc reporter light; Renilla reference signal: higher = more Renilla control light. Active means: 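Called a hit if the two-replicate mean z-score lies below -2 or above +3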. Calls: active = hit: reporter lowered or raised; inactive = not a hit.
In all, the deposit lists about 21,000 reagents; below is a random part of those that have a named target and a result. Over the whole deposit, 503 (2.4%) got an active call. 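Raw plate light values, not normalised; calls rest on replicate z-scores that were not deposited; hits include reporter decreases as well as increases.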 Names joined by + are all predicted targets of the reagent. Not stated in the record: the amount of reagent, the time to read-out.

gene,dsRNA,"firefly Hh reporter signal, replicate 1","firefly Hh reporter signal, replicate 2","firefly Hh reporter signal, replicate 3","Renilla reference signal, replicate 1","Renilla reference signal, replicate 2",Outcome
Spps (Sp1-like factor for pairing sensitive-silencing),DRSC15856,1.03e5,84919,,3461,2675,inactive
Sry-delta (Serendipity delta),DRSC16869,85690,54524,,1786,1706,inactive
PyK (Pyruvate kinase),DRSC16806,6.62e5,1.76e5,,28585,3987,inactive
hig (hikaru genki),DRSC07628,1.20e5,4.22e5,1.05e5,4859,26861,inactive
Cyp4d1 (Cytochrome P450 4d1),DRSC17694,4.55e5,1.49e5,,24756,3456,inactive
Cyp4d1 (Cytochrome P450 4d1),DRSC18456,1.02e5,2.87e5,,3685,10262,inactive
CG4377,DRSC04467,75292,95137,,3462,3799,inactive
Ugt49C1 (UDP-glycosyltransferase family 49 member C1),DRSC04252,91685,52060,,2432,4768,inactive
stw (straw),DRSC04842,71269,62208,,1741,5132,inactive
stw (straw),DRSC04843,86024,71078,,2192,5611,inactive
B-H2 (BarH2),DRSC19335,43595,52486,,1142,2857,inactive
Tom7 (Translocase of outer membrane 7),DRSC05135,1.48e5,1.82e5,,3323,7942,inactive
Tom7 (Translocase of outer membrane 7),DRSC07113,84561,68513,,2356,5769,inactive
scb (scab),DRSC05542,1.93e5,2.47e5,,5076,11488,inactive
scb (scab),DRSC07678,71483,61570,,1332,4226,inactive
CG32262,DRSC08165,98691,1.09e5,,5111,4484,inactive
ODA-Dnal1 (Outer dynein arm dynein axonemal light chain 1),DRSC07270,1.79e5,64628,,4097,5241,inactive
bip1,DRSC11327,82301,76160,,4017,3264,inactive
Acox3 (Acyl-CoA oxidase 3),DRSC03251,63301,21528,,1019,2784,inactive
CG34015,DRSC19140,8.57e5,3.11e5,,50944,7077,inactive
Fuca (alpha-L-fucosidase),DRSC10591,90823,58426,51713,6746,3846,inactive
Vtld + CG42529,DRSC10102,1.33e5,1.22e5,,4748,3421,inactive
CG18302,DRSC02663,76771,57984,,2248,5572,inactive

4 of these entries, reformatted.
gene | dsRNA | firefly Hh reporter signal, replicate 1 | firefly Hh reporter signal, replicate 2 | firefly Hh reporter signal, replicate 3 | Renilla reference signal, replicate 1 | Renilla reference signal, replicate 2 | Outcome
hig (hikaru genki) | DRSC07628 | 1.20e5 | 4.22e5 | 1.05e5 | 4859 | 26861 | inactive
Cyp4d1 (Cytochrome P450 4d1) | DRSC17694 | 4.55e5 | 1.49e5 | – | 24756 | 3456 | inactive
Cyp4d1 (Cytochrome P450 4d1) | DRSC18456 | 1.02e5 | 2.87e5 | – | 3685 | 10262 | inactive
CG4377 | DRSC04467 | 75292 | 95137 | – | 3462 | 3799 | inactive
